# Assay results reported in the supplement of paper PMC8728848.
# Some of the results follow.
# B1: his-Lectin-24A (Drosophila melanogaster) (protein)
# chain: MFRLSVLVLNLLLVSHEFSAGTAKIEIQPLPALCNGYCFPTLKPVMEYVAIHQDKWNTCTEILANEARKDQIQLNIQLDALKADVSNIKASQLSKDEKLDRMEREQFAMHESLETINRYLTVKLDRTKLQLEAIKNTMDYMKAQMDGYFSAINGVQCLQPGFEKIGDRYFYIEEDVELNWLDAQAKCRRMGGHLASIKTKQEFDAIVEKLDDSKSYFLGVNENTKTGDFVSAASGKSCLYHEWGPGEPHHNNDQERCVSILRKLMHVGNCTYEKRFICQYGI
# Columns and labels:
# Assay in all cases: glycan array binding signal (z-score within array); higher = stronger binding
# Conditions in all cases: glycan notation: IUPAC condensed, linker removed
# Neu5Ac(a2-8)Neu5Ac = target: Neu5Ac(a2-8)Neu5Ac
# In short: (§1)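 The binding signal is a Z-score computed within each array. Data were drawn from 3228 arrays in the Consortium for Functional Glycomics database, restricted to those with a known protein sequence. Scores were averaged over arrays of the same protein sequence at different concentrations or buffers, and over linkers, and negative values can be taken as non-binding.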
# [1] = target: Neu5Ac(a2-8)Neu5Ac(a2-3)Gal(b1-3)GalNAc(b1-4)[Neu5Ac(a2-3)]Gal(b1-4)Glc
# In short: as §1
# [2] = target: Neu5Ac(a2-8)Neu5Ac(a2-3)Gal(b1-3)GalNAc(b1-4)[Neu5Ac(a2-8)Neu5Ac(a2-3)]Gal(b1-4)Glc
# In short: as §1
# [3] = target: Neu5Ac(a2-8)Neu5Ac(a2-3)Gal(b1-4)Glc
# In short: as §1
# [4] = target: Neu5Ac(a2-8)Neu5Ac(a2-3)Gal(b1-4)GlcNAc
# In short: as §1
# [5] = target: Neu5Ac(a2-8)Neu5Ac(a2-3)[Gal(b1-3)GalNAc(b1-4)]Gal(b1-4)Glc
# In short: as §1
# [6] = target: Neu5Ac(a2-8)Neu5Ac(a2-3)[GalNAc(b1-4)]Gal(b1-4)Glc
# In short: as §1
# [7] = target: Neu5Ac(a2-8)Neu5Ac(a2-8)Neu5Ac
# In short: as §1
# [8] = target: Neu5Ac(a2-8)Neu5Ac(a2-8)Neu5Ac(a2-3)Gal(b1-4)Glc
# In short: as §1
# [9] = target: Neu5Ac(a2-8)Neu5Ac(a2-8)Neu5Ac(a2-3)[Gal(b1-3)GalNAc(b1-4)]Gal(b1-4)Glc
# In short: as §1
# [10] = target: Neu5Ac(a2-8)Neu5Ac(a2-8)Neu5Ac(a2-3)[GalNAc(b1-4)]Gal(b1-4)Glc
# In short: as §1
# [11] = target: Neu5Ac(a2-8)Neu5Ac(a2-8)Neu5Ac(a2-8)Neu5Ac(a2-3)[GalNAc(b1-4)]Gal(b1-4)Glc
# In short: as §1
# [12] = target: Neu5Ac(a2-8)Neu5Gc(a2-3)Gal(b1-4)GlcNAc
# In short: as §1
# [13] = target: Neu5Ac(b2-6)Gal(b1-4)GlcNAc
# In short: as §1
# Neu5Ac(b2-6)GalNAc = target: Neu5Ac(b2-6)GalNAc
# In short: as §1
# [14] = target: Neu5Ac9Ac(a2-3)Gal(b1-3)GlcNAc
# In short: as §1
# [15] = target: Neu5Ac9Ac(a2-3)Gal(b1-4)GlcNAc
# In short: as §1
# [16] = target: Neu5Ac9Ac(a2-6)Gal(b1-4)GlcNAc
# In short: as §1
# [17] = target: Neu5Gc(a2-3)Gal(b1-3)GlcNAc
# In short: as §1
# [18] = target: Neu5Gc(a2-3)Gal(b1-3)[Fuc(a1-4)]GlcNAc
# In short: as §1
# Neu5Gc(a2-3)Gal(b1-4)Glc = target: Neu5Gc(a2-3)Gal(b1-4)Glc
# In short: as §1
# [19] = target: Neu5Gc(a2-3)Gal(b1-4)GlcNAc
# In short: as §1
# [20] = target: Neu5Gc(a2-3)Gal(b1-4)GlcNAc(b1-3)Gal(b1-4)GlcNAc(b1-2)Man(a1-3)[Neu5Gc(a2-3)Gal(b1-4)GlcNAc(b1-3)Gal(b1-4)GlcNAc(b1-2)Man(a1-6)]Man(b1-4)GlcNAc(b1-4)GlcNAc
# In short: as §1
# [21] = target: Neu5Gc(a2-3)Gal(b1-4)[Fuc(a1-3)]GlcNAc
# In short: as §1
# [22] = target: Neu5Gc(a2-6)Gal(b1-4)GlcNAc
# In short: as §1
# Neu5Gc(a2-6)GalNAc = target: Neu5Gc(a2-6)GalNAc
# In short: as §1
# [23] = target: Neu5Gc(a2-8)Neu5Ac(a2-3)Gal(b1-4)GlcNAc
# In short: as §1
# [24] = target: Neu5Gc(a2-8)Neu5Gc(a2-3)Gal(b1-4)GlcNAc
# In short: as §1
# [25] = target: Neu5Gc(a2-8)Neu5Gc(a2-3)Gal(b1-4)GlcNAc(b1-3)Gal(b1-4)GlcNAc
# In short: as §1
# [26] = target: Neu5Gc(a2-8)Neu5Gc(a2-6)Gal(b1-4)GlcNAc
# In short: as §1
# [27] = target: Neu5Gc(b2-6)Gal(b1-4)GlcNAc
# In short: as §1
binder,measurement,setting,value
B1,glycan array binding signal (z-score),Neu5Ac(a2-8)Neu5Ac,-0.128
same,glycan array binding signal (z-score),[1],2.87
same,glycan array binding signal (z-score),[2],0.393
same,glycan array binding signal (z-score),[3],-0.828
same,glycan array binding signal (z-score),[4],-0.208
same,glycan array binding signal (z-score),[5],0.25
same,glycan array binding signal (z-score),[6],-0.653
same,glycan array binding signal (z-score),[7],0.094
same,glycan array binding signal (z-score),[8],2.02
same,glycan array binding signal (z-score),[9],0.095
same,glycan array binding signal (z-score),[10],0.981
same,glycan array binding signal (z-score),[11],0.214
same,glycan array binding signal (z-score),[12],0.038
same,glycan array binding signal (z-score),[13],-0.192
same,glycan array binding signal (z-score),Neu5Ac(b2-6)GalNAc,-0.412
same,glycan array binding signal (z-score),[14],-0.873
same,glycan array binding signal (z-score),[15],-1.15
same,glycan array binding signal (z-score),[16],0.481
same,glycan array binding signal (z-score),[17],-1.69
same,glycan array binding signal (z-score),[18],-0.723
same,glycan array binding signal (z-score),Neu5Gc(a2-3)Gal(b1-4)Glc,-1.15
same,glycan array binding signal (z-score),[19],-0.377
same,glycan array binding signal (z-score),[20],0.727
same,glycan array binding signal (z-score),[21],-0.231
same,glycan array binding signal (z-score),[22],-0.588
same,glycan array binding signal (z-score),Neu5Gc(a2-6)GalNAc,-1.52
same,glycan array binding signal (z-score),[23],-0.218
same,glycan array binding signal (z-score),[24],-0.569
same,glycan array binding signal (z-score),[25],-0.999
same,glycan array binding signal (z-score),[26],1.13
same,glycan array binding signal (z-score),[27],-0.429

# Part of the list above, tab-delimited.
binder	measurement	setting	value
B1	glycan array binding signal (z-score)	[13]	-0.192
same	glycan array binding signal (z-score)	Neu5Ac(b2-6)GalNAc	-0.412
